Experimental data reported in patent US6576442.

What was measured:
[1] = molecular target: Fak (focal adhesion kinase); experiment: coexpression in COS cells, anti-HA immunoprecipitation, immunoblot with anti-Fak
[2] = molecular target: Fak (focal adhesion kinase); experiment: in vitro binding to immobilized GST-fusion protein
[3] = molecular target: Fak (focal adhesion kinase); experiment: coexpression in 293 cells, co-immunoprecipitation

Row | Binder | binding [1] | further results
1 | GST-fusion protein containing the same portion of hrdgB1 (amino acids 627-936) (protein, not shown: a dimerising Fc or GST) VKLRNVTANHRANDVIAAEDGPQVLVGRFMYGPLDMVALTGEKVDILVMAEPSSGRWVHLDTEITNSSGRITYNVPRPRRLGVGVYPVKMVVRGDQTCAMSYLTVLPRGMECVVFSIDGSFAASVSIMGSDPKVRPGAVDVVRHWQDLGYMILYITGRPDMQKQRVVSWLSQHNFPQGMIFFSDGLVHDPLRQKAIFLRNLMQECFIKISAAYGSTKDISVYSVLGLPASQIFIVGRPTKKYQTQCQFLSEGYAAHLAVLEASHRSRPKKNNSRMILRKGSFGLHAQPEFLRKRNHLRRTMSVQQPDPPA |  | binding [2]: no binding
2 | hemagglutinin-tagged rdgB1 (full length hrdgB1 with C-terminal HA-epitope tag) (protein) MAKAGRAGGPPPGGGAPWHLRNVLSDSVESSDDEFFDAREEMAEGKNAILIGMSQWNSNDLVEQIETMGKLDEHQGEGTAPCTSSILQEKQRELYRVSLRRQRFPAQGSIEIHEDSEEGCPQRSCKTHVLLLVLHGGNILDTGAGDPSCKAADIHTFSSVLEKVTRAHFPAALGHILIKFVPCPAICSEAFSLVSHLNPYSHDEGCLSSSQDHVPLAALPLLAISSPQYQDAVATVIERANQVYREFLKSSDGIGFSGQVCLIGDCVGGLLAFDAICYSAGPSGDSPASSSRKGSISSTQDTPVAVEEDCSLASSKRLSKSNIDISSGLEDEEPKRPLPRKQSDSSTYDCEAITQHHAFLSSIHSSVLKDESETPAAGGPQLPEVSLGRFDFDVSDFFLFGSPLGLVLAMRRTVLPGLDGFQVRPACSQVYSFFHCADPSASRLEPLLEPKFHLVPPVSVPRYQRFPLGDGQSLLLADALHTHSPLFLEGSSRDSPPLLDAPASPPQASRFQRPGRRMSEGSSHSESSESSDSMAPVGASRITAKWWGSKRIDYALYCPDVLTAFPTVALPHLFHASYWESTDVVAFILRQVMRYESVNIKESARLDPAALSPANPREKWLRKRTQVKLRNVTANHRANDVIAAEDGPQVLVGRFMYGPLDMVALTGEKVDILVMAEPSSGRWVHLDTEITNSSGRITYNVPRPRRLGVGVYPVKMVVRGDQTCAMSYLTVLPRGMECVVFSIDGSFAASVSIMGSDPKVRPGAVDVVRHWQDLGYMILYITGRPDMQKQRVVSWLSQHNFPQGMIFFSDGLVHDPLRQKAIFLRNLMQECFIKISAAYGSTKDISVYSVLGLPASQIFIVGRPTKKYQTQCQFLSEGYAAHLAVLEASHRSRPKKNNSRMILRKGSFGLHAQPEFLRKRNHLRRTMSVQQPDPPAANPKPERAQSQPESDKDHERPLPALSWARGPPKFESVPYPYDVPDYAS |  | binding [3]: no binding

Now from value to binder, other results behind:

Row | binding [1] | Binder | further results
3 | no binding | hrdgB2-HA (full length hrdgB2 with C-terminal HA-epitope tag) (protein) MLIKEYHILLPMSLDEYQVAQLYMIQKKSREESSGEGSGVEILANRPYTDGPGGSGQYTHKVYHVGSHIPGWFRALLPKAALQVEEESWNAYPYTRTRYTCPFVEKFSIEIETYYLPDGGQQPNVFNLSGAERRQRILDTIDIVRDAVAPGEYKAEEDPRLYHSVKTGRGPLSDDWARTAAQTGPLMCAYKLCKVEFRYWGMQAKIEQFIHDVGLRRVMLRAHRQAWCWQDEWTELSMADIRALEEETARMLAQRMAKCNTGSEGSEAQPPGKPSTEARSAASNTGTPDGPEAPPGPDASPDASFGKQWSSSSRSSYSSQHGGAVSPQSLSEWRMQNIARDSENSSEEEFFDAHEGFSDSEEVFPKEMTKWNSNDFIDAFASPVEAEGTPEPGAEAAKGIEDGAQAPRDSEGLDGAGELGAEACAVHALFLILHSGNILDSGPGDANSKQADVQTLSSAFEAVTRIHFPEALGHVALRLVPCPPICAAAYALVSNLSPYSHDGDSLSRSQDHIPLAALPLLATSSSRYQGAVATVIARTNQAYSAFLRSPEGAGFCGQVALIGDGVGGILGFDALCHSANAGTGSRGSSRRGSMNNELLSPEFGPVRDPLADGVEGLGRGSPEPSALPPQRIPSDMASPEPEGSQNSLQAAPATTSSWEPRRASTAFCPPAASSEAPDGPSSTARLDFKVSGFFLFGSPLGLVLALRKTVMPALEAAQMRPACEQIYNLFHAADPCASRLEPLLAPKFQAIAPLTVPRYQKFPLGDGSSLLLADTLQTHSSLFLEELEMLVPSTPTSTSGAFWKGSELATDPPAQPAAPSTTSEVVKILERWWGTKRIDYSLYCPEALTAFPTVTLPHLFHASYWESADVVAFILRQVIEKERPQLAECEEPSIYSPAFPREKWQRKRTQVKIRNVTSNHRASDTVVCEGPPQVLSGRFMYGPLDVVTLTGEKVDVYIMTQPLSGKWIHFGTEVTNSSGRLTFPVPPERALGIGVYPVRMVVRGDHTYAECCLTVVARGTEAVVFSIDGSFTASVSIMGSDPKVRAGAVDVVRHWQDSGYLIVYVTGRPDMQKHRVVAWLSQHNFPHGVVSFCDGLTHDPLRQKAMFLQSLVQEVELNIVAGYGSPKDVAVYAALGLSPSQTYIVGRAVRKLQAQCQFLSDGYVAHLGQLEAGSHSHASSGPPRAALGKSSYGVAAPVDFLRKQSQLLRSRGPSQAEREGPGTPPTTLARGKARSISLKLDSEEYPYDVPDYAS | 
4 | no binding | hrdgB3-HA (full length hrdgB3 with C-terminal HA-epitope tag) (protein) MIIKEYRIPLPMTVEEYRIAQLYMIQKKSRNETYGEGSGVEILENRPYTDGPGGSGQYTHKVYHVGMHIPSWFRSILPKAALRVVEESWNAYPYTRTRFTCPFVEKFSIDIETFYKTDAGENPDVFNLSPVEKNQLTIDFIDIVKDPVPHNEYKTEEDPKLFQSTKTQRGPLSENWIEEYKKQVFPIMCAYKLCKVEFRYWGMQSKIERFIHDTGLRRVMVRAHRQAWCWQDEWYGLSMENIRELEKEAQLMLSRKMAQFNEDGEEATELVKHEAVSDQTSGEPPEPSSSNGEPLVGRGLKKQWSTSSKSSRSSKRGASPSRHSISEWRMQSIARDSDESSDDEFFDAHEDLSDTEEMFPKDITKWSSNDLMDKIESPEPEDTQDGLYRQGAPEFRVASSVEQLNIIEDEVSQPLAAPPSKIHVLLLVLHGGTILDTGAGDPSSKKGDANTIANVFDTVMRVHYPSALGRLAIRLVPCPPVCSDAFALVSNLSPYSHDEGCLSSSQDHIPLAALPLLATSSPQYQEAVATVIQRANLAYGDFIKSQEGMTFNGQVCLIGDCVGGILAFDALCYSNQPVSESQSSSRRGSVVSMQDNDLLSPGILMNAAHCCGGGGGGGGGGGSSGGGGSSGGSSLESSRHLSRSNVDIPRSNGTEDPKRQLPRKRSDSSTYELDTIQQHQAFLSSLHASVLRTEPCSRHSSSSTMLDGTGALGRFDFEITDLFLFGCPLGLVLALRKTVIPALDVFQLRPACQQVYNLFHPADPSASRLEPLLERRFHALPPFSVPRYQRYPLGDGCSTLLADVLQTHNAAFQEHGAPSSPGTAPASRGFRRASEISIASQVSGMAESYTASSIAQKAPDALSHTPSVRRLSLLALPAPSPTTPGPHPPARKASPGLERAPGLPELDIGEVAAKWWGQKRIDYALYCPDALTAFPTVALPHLFHASYWESTDVVSFLLRQVMRHDNSSILELDGKEVSVFTPSKPREKWQRKRTHVKLRNVTANHRINDALANEDGPQVLTGRFMYGPLDMVTLTGEKVDVHIMTQPPSGEWLYLDTLVTNNSGRVSYTIPESHRLGVGVYPIKMVVRGDHTFADSYITVLPKGTEFVVFSIDGSFAASVSIMGSDPKVRAGAVDVVRHWQDLGYLIIYVTGRPDMQKQRVVAWLAQHNFPHGVVSFCDGLVHDPLRHKANFLKLLISELHLRVHAAYGSTKDVAVYSAISLSPMQIYIVGRPTKKLQQQCQFITDGYAAHLAQLKYSHRARPARNTATRMALRKGSFGLPGQGDFLRSRNHLLRTISAQPSGPSHRHERTQSQADGEQRGQRSMSVAAGCWGRAMTGRLEPGAAAGPKYPYDVPDYAS | 

Results are given in words; binding and its absence hold for the method and conditions named. For some of these results: In cells and extracts the contact can be indirect. Sequences can lack the tags named with a protein.
